Laboratory results from paper PMC11551746, “The Swi5–Sfr1 complex regulates Dmc1- and Rad51-driven DNA strand exchange proceeding through two distinct three-stranded intermediates by different mechanisms” (Nucleic Acids Research, 2024).
Construct, isoform or probe ends are uncertain for at least one entry. For some assays here: Weaker means in comparison with the reference protein, sequence or condition of that experiment. Protein sequences can lack the tags named with them. For some assays here: At least one verdict was read from the data and is not stated in words by the source.

Key:
Dmc1 = target: T1, Dmc1 (UniProt O42634); test: fluorescence anisotropy; conditions: filament stable for 1600 s under strand exchange conditions; 30 mM HEPES-KOH pH 7.5, 100 mM KCl, 3 mM MgCl2 or CaCl2, 1 mM DTT, 5% glycerol, 1 mM adenine nucleotide, 3 uM (nt) TAMRA-dT72, 25 C; recombinant protein; label: 5' FAM; single-stranded DNA
T1 sequence (looked up, limits assumed): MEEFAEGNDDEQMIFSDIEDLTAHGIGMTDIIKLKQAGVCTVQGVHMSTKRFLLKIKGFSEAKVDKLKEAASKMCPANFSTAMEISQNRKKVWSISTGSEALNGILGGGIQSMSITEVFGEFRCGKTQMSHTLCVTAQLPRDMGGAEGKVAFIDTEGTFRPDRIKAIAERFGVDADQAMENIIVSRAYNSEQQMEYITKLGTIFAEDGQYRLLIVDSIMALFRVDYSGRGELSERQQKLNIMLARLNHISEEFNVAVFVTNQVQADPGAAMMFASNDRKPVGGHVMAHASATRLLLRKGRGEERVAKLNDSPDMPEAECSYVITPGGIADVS

Rad51 = target: T2, Rad51 (UniProt P36601); test: fluorescence anisotropy; conditions: Swi5-Sfr1 present, affinity reduced in a concentration-dependent manner; 30 mM HEPES-KOH pH 7.5, 100 mM KCl, 3 mM MgCl2 or CaCl2, 1 mM DTT, 5% glycerol, 1 mM adenine nucleotide, 3 uM (nt) TAMRA-dT72, 25 C; recombinant protein; label: 5' TAMRA; single-stranded DNA
T2 sequence (looked up, limits assumed): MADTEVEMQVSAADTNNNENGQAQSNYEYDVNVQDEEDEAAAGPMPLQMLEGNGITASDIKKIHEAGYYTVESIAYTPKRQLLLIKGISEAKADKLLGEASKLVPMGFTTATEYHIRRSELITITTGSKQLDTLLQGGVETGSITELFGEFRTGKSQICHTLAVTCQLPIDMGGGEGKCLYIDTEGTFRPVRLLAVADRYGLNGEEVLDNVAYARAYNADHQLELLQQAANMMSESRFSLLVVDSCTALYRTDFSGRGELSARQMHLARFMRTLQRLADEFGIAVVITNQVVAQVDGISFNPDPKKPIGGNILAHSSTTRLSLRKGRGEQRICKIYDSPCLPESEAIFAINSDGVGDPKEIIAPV

Sequence | binding result (Dmc1) | binding result (Rad51)
AAATGAACATAAAGTAAATAAGTATAAGGATAATACAAAATAAGTAAATGAATAAACATAGAAAATAAAGTAAAGGATATAAA [FAM-16A(-)] | binds | –
TTTTTTTTTTTTTTTTTTTTTTTTTTTTTTTTTTTTTTTTTTTTTTTTTTTTTTTTTTTTTTTTTTTTTTTT [[TAMRA]dT72] | – | binds more weakly
